Assay results published in article PMC7819943, “Rice protein-binding microarrays: a tool to detect cis-acting elements near promoter regions in rice”.
The list shows a part of the results.

Chains of the proteins cited; added tags and fusions are not shown.
UniProt Q0JBA9, entry or part of it: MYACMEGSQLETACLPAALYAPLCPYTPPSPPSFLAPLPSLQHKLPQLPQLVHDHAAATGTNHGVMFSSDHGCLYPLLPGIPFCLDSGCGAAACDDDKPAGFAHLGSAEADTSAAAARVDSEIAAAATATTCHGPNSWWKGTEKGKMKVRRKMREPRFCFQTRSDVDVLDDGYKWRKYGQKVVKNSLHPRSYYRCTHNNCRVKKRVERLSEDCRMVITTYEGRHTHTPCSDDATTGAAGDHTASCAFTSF

target: OsWRKY34 (Oryza sativa, UniProt Q0JBA9 1-250); experiment: protein-binding microarray (RPBM); PBS, 2% BSA, 51.3 ng/ul salmon testes DNA, 50 uM zinc acetate, 200 nM TF, 25 C, 1 h; high values mean tight binding; settings: protein: recombinant; tags: N-terminal polyhistidine and DsRed monomer fusion (pET32a); label: CyDye5-dUTP incorporated in the synthesized complementary strand; 3' TTTTT single-stranded linker to array surface; dsDNA, one strand shown
Method in brief: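 The binding signal for each feature is its fluorescence intensity in arbitrary units. An Axon 4000B scanner was used to read a custom Agilent array that had been made double-stranded with Cy5-dUTP primer extension, blocked with 2% BSA, incubated at 25 °C for 1 h with 200 nM protein in PBS, 2% BSA, salmon testes DNA and 50 µM zinc acetate, and washed. The protein was an N-terminal polyhistidine–DsRed transcription factor fusion from E. coli BL21-CodonPlus, purified on Ni–NTA.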

Question: Which binding signal does the source give for “GTCGGTTTCTTCGCTCCATTGTTCTGTTCCTTGCTCGAGACGGAGTCACCTAGTGCAG” here?
Answer: 9940 fluorescence intensity (a.u.)

Question: How did the binding signal turn out when “CGTACGTCTACCATTTCTCTCTCCTTGCTGTAGGAATGACCGGAGTCACCTAGTGCAG” was run?
Answer: 9260 fluorescence intensity (a.u.)

Question: How did the binding signal turn out when “TCATTCTCCGACATCTATCGTCGCCGTCACCAACATCCTACGGAGTCACCTAGTGCAG” was run?
Answer: 8170 fluorescence intensity (a.u.)

Question: How did the binding signal turn out when “CTATCCTGGTTGTCTGCCCTATGAAACCACTCTCTACAGTCGGAGTCACCTAGTGCAG” was run?
Answer: 8830 fluorescence intensity (a.u.)

Question: How did the binding signal turn out when “GCTTAATAACATTCTATCTATACCTGTTCTTTTCTTTATGCGGAGTCACCTAGTGCAG” was run?
Answer: 8420 fluorescence intensity (a.u.)

Question: For “ACAATGAACACCTGCACCTACCATGCACTAGTCACTTCATCGGAGTCACCTAGTGCAG”, which binding signal is on record?
Answer: 8880 fluorescence intensity (a.u.)

Question: For “TTTTTGCCTAGTTGGCAAGCCTCTTCGTTCGACCGCTAGACGGAGTCACCTAGTGCAG”, which binding signal is on record?
Answer: 9820 fluorescence intensity (a.u.)

Question: “GAGGGGTCGAGGAGGCGTAGTAGTTCAGTTTGGCTCTTTCCGGAGTCACCTAGTGCAG” was tested. Which binding signal did it give?
Answer: 8890 fluorescence intensity (a.u.)

Question: For “TTCCTTTATTCCTTTTTTTTCTTCTCTCGCGCTCGATTCGCGGAGTCACCTAGTGCAG”, which binding signal is on record?
Answer: 8800 fluorescence intensity (a.u.)

Question: “GACTTTGCCATGCTTCACCTGGTTATCTCCAGATTCACATCGGAGTCACCTAGTGCAG” was tested. Which binding signal did it give?
Answer: 9130 fluorescence intensity (a.u.)

Question: How did the binding signal turn out when “GCTTGGCTACCAGGGCCACTCTTTTCGTTACCATTTGCATCGGAGTCACCTAGTGCAG” was run?
Answer: 10700 fluorescence intensity (a.u.)

Question: Which binding signal does the source give for “CGCTGTCGACCTCCCCACCTCCTCCTTCGCACGTTCTCGCCGGAGTCACCTAGTGCAG” here?
Answer: 9840 fluorescence intensity (a.u.)

Question: For “TGGACTTATTTTGGTCGGATTTGAGGTGTTTATGTAATCACGGAGTCACCTAGTGCAG”, which binding signal is on record?
Answer: 9160 fluorescence intensity (a.u.)

Question: For “AGGGGTTTTTCGGCTAGCTTCACAAGATTGTGGGTTAGCTCGGAGTCACCTAGTGCAG”, which binding signal is on record?
Answer: 8650 fluorescence intensity (a.u.)

Question: Which binding signal does the source give for “TACCCCGGCGCGATCTTGACCACGTTCTTCCACCCCTTCTCGGAGTCACCTAGTGCAG” here?
Answer: 9200 fluorescence intensity (a.u.)

Question: How did the binding signal turn out when “GCAGCGCCGTTCCCCTCTCCTCGCCCCGCCATGCCGCTCACGGAGTCACCTAGTGCAG” was run?
Answer: 9050 fluorescence intensity (a.u.)

Question: For “ATTCAAGGTTGGATGGTTTTCTTTTTTTACTCTAAATTTCCGGAGTCACCTAGTGCAG”, which binding signal is on record?
Answer: 12000 fluorescence intensity (a.u.)

Question: Which binding signal does the source give for “CTGTCTCCGTCTCTTTTACCTCAGTCTCGCGTATATCCTACGGAGTCACCTAGTGCAG” here?
Answer: 9160 fluorescence intensity (a.u.)

Question: Which binding signal does the source give for “TTTGTGCTAATATTTTTTCTACTGTTATTTTTTATACTTCCGGAGTCACCTAGTGCAG” here?
Answer: 10600 fluorescence intensity (a.u.)

Question: For “TTGTGAGGTTAATCCGTGGCCATTTTGACAGCTTGAGTTTCGGAGTCACCTAGTGCAG”, which binding signal is on record?
Answer: 9210 fluorescence intensity (a.u.)

Question: For “TTACACACAGTATTCAGTCGCGTTAGTCTCCTTCGAATATCGGAGTCACCTAGTGCAG”, which binding signal is on record?
Answer: 10800 fluorescence intensity (a.u.)

Question: For “CCCGGCCGCTCTCTCCGGGTGGGGTGGTGGGTGGCAAGGGCGGAGTCACCTAGTGCAG”, which binding signal is on record?
Answer: 21100 fluorescence intensity (a.u.)

Question: For “TTCAGAGTATTGTGATCCTTAAATCGAACCGTTGACTCTACGGAGTCACCTAGTGCAG”, which binding signal is on record?
Answer: 9490 fluorescence intensity (a.u.)

Question: Which binding signal does the source give for “GTCGAGCGGGCGAACATGATCTCGCGGGAGGGTGGGGTTGCGGAGTCACCTAGTGCAG” here?
Answer: 13500 fluorescence intensity (a.u.)

Question: “AGCTAGCCCACTACACCTCCTACACCCTCACCATCCAATACGGAGTCACCTAGTGCAG” was tested. Which binding signal did it give?
Answer: 9000 fluorescence intensity (a.u.)

Question: How did the binding signal turn out when “ATGGGCAAGACGGCTCCTCTGTTTCTCTCCTACCTCCTCTCGGAGTCACCTAGTGCAG” was run?
Answer: 11000 fluorescence intensity (a.u.)

Question: For “GCCTGGTCGCTCCGCGCCTCTCTCCCCGCCCGCATCCTCGCGGAGTCACCTAGTGCAG”, which binding signal is on record?
Answer: 10800 fluorescence intensity (a.u.)

Question: For “ATCCAGGCAAGGGTGGGCGTGATGGAGTTTGGATGGGCCCCGGAGTCACCTAGTGCAG”, which binding signal is on record?
Answer: 8850 fluorescence intensity (a.u.)

Question: Which binding signal does the source give for “TCCATCGATTTGTTTTCTCTCTCCTGTCAGTTTTTTGCTACGGAGTCACCTAGTGCAG” here?
Answer: 10900 fluorescence intensity (a.u.)

Question: With “CTGGTGGTGTAGTATATTAGCGTCCTTGCCCTGGCCTTTGCGGAGTCACCTAGTGCAG” as the sequence, how does the binding signal read?
Answer: 9110 fluorescence intensity (a.u.)

Question: With “CATCAAACAGCTTTCTCTGCTAACACCCTTAGATCTATTCCGGAGTCACCTAGTGCAG” as the sequence, how does the binding signal read?
Answer: 11200 fluorescence intensity (a.u.)

Question: For “CTCCCCGGCCTCTCCACCCACCCCTCGATCTCTCGCTCGCCGGAGTCACCTAGTGCAG”, which binding signal is on record?
Answer: 8600 fluorescence intensity (a.u.)

Question: Which binding signal does the source give for “TCTCTCTCTCGTCGTCTCGCGTCTCTTCTCTCAACCGCGACGGAGTCACCTAGTGCAG” here?
Answer: 13800 fluorescence intensity (a.u.)

Question: Which binding signal does the source give for “TCAACACTGGCCTCTTTTTCACCTCGCAGCCTCGCACCGCCGGAGTCACCTAGTGCAG” here?
Answer: 11800 fluorescence intensity (a.u.)

Question: For “ACCCATTACAACCCTGTAGTACATGCCACACCGTTTGACACGGAGTCACCTAGTGCAG”, which binding signal is on record?
Answer: 10800 fluorescence intensity (a.u.)

Question: “AGGGGTGTAACAAGGTGCTATTCTCTGCATTGCTAGAATACGGAGTCACCTAGTGCAG” was tested. Which binding signal did it give?
Answer: 8510 fluorescence intensity (a.u.)

Question: With “ACTTTCACAAGGGTGTGTTTTTTGCGTTAAAATTGAAAGTCGGAGTCACCTAGTGCAG” as the sequence, how does the binding signal read?
Answer: 8870 fluorescence intensity (a.u.)

Question: Which binding signal does the source give for “TGGTGACATAAACTTGGAGTACACTCTTTGGCCATTAATTCGGAGTCACCTAGTGCAG” here?
Answer: 9610 fluorescence intensity (a.u.)

Question: With “GGGAGAGAAGAATCTGTAGTTGGGAGGAAATTGAGTTTTGCGGAGTCACCTAGTGCAG” as the sequence, how does the binding signal read?
Answer: 10600 fluorescence intensity (a.u.)

Question: For “AATTTTACCCGTGGGCTTGTCCGCCCAAGACCCGTAGACACGGAGTCACCTAGTGCAG”, which binding signal is on record?
Answer: 9780 fluorescence intensity (a.u.)

Question: How did the binding signal turn out when “CGCTTCCTCGCCGCGCGCGCGCCCGCCATCTCCTCGCCTCCGGAGTCACCTAGTGCAG” was run?
Answer: 9350 fluorescence intensity (a.u.)

Question: For “CAAACCTTCGCGCCGCCCATTTTTCCACCTCGTCGTCCTTCGGAGTCACCTAGTGCAG”, which binding signal is on record?
Answer: 13900 fluorescence intensity (a.u.)
